# Reference: PubChem BioAssay AID493014 (National Center for Advancing Translational Sciences (NCATS), 2011)
# The whole screen tested about 340,000 compounds, of which about 170 (0.05%) were called active. Inconclusive means that the source gave no clear call. Such entries were picked first, then a sample of the others. Calls come from the whole dose curve; as a rule, active = well fitted inhibition curve with a large enough effect in the signal ratio, with a control signal flat (not every such curve was filed as active); inconclusive = small, poorly fitted or top-dose-only effect, or effect the other way, or a change in a side signal; inactive = flat fitted curve, though single readings scatter; the % refers to the signal ratio. Potencies of inconclusive entries are doubtful fits and often do not repeat.
# Assay: qHTS Assay to Find Inhibitors of Chronic Active B-Cell Receptor Signaling;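 for activity change, negative = inhibition: plate controls were basal doxycycline-induced cells for no effect and cells given 10 µM MG132 for full effect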
# Details: ABC-DLBCL IkBa-CBG/CBR reporter, luminescence ratio (green luciferase fused to IkBa over red control in TMD8 lymphoma cells), 4 h; activity change, negative = inhibition: at 46.1 µM (top of the series) unless noted
# Text: NIH Molecular Libraries Probe Production Network [MLPCN] NIH Chemical Genomics Center [NCGC] MLPCN Grant: 1 R03 DA031086-01A1 PI Name: Dr. R. Eric Davis NCGC Assay Overview: Diffuse large B-cell lymphoma (DLBCL) is the most common category of non-Hodgkin lymphoma, with ~20,000 new cases per year in the United States. DLBCL should be regarded as a collection of different neoplasms. Microarray gene expression analysis has defined two principal types of DLBCL, named for their similarity to normal B cell stages or activation states: a germinal center B-cell (GCB) type, and an activated B-cell (ABC) type. In ABC-DLBCL, a constitutive high-level activity of the NF-kappaB family of transcription factors has been observed (1) and NF-kappaB target genes are more highly expressed in ABC primary tumors than in GCB tumors. Functional studies have shown a constitutive high-level activity of the IkappaB (inhibitor of kappa-B) kinase (IKK) complex. […] Further analysis of DLBCL primary tumors for NF-kappaB target gene expression imply that although CARD11 is required for constitutive IKK activity in all ABC-DLBCL lines, mutations in CARD11 may be the root cause of IKK activation only in lines or tumors with such mutations. In other words, CARD11 mutations may explain NF-kappaB activation in only 10% of ABC-DLBCL cases. […] This process has been termed 'chronic active BCR signaling' (CABS). The goal of this screen is to find small-molecule inhibitors of the CABS pathway found in ABC-DLBCL lines using a cell-based assay that measures IkappaBalpa stability, which has already been extensively validated in the OCI-Ly3 line (PubChem AID:445; REF: 4). […] The assay uses green (CBG68) and red (CBR) emitting beetle luciferases [Chroma-GloTM developed by Promega Corp.] where the green luciferase is fused to IkappaBalpha and the red luciferase is present in its native state. Both luciferase genes are stably present in the TMD8 human ABC DLBCL cell line, but their expression is under the control of tetracycline-inducible promoters. Following the addition of doxycycline to induce expression of the luciferases, the green luminescence in control cultures rises only slowly because the CBG fusion partner IkappaBalpha is targeted by IKK activity for rapid degradation. In contrast, green luminescence rises rapidly in the presence of proteasome inhibitors or IKK inhibitors. The rise in red luminescence of CBR is not affected by proteasome or IKK inhibitors, and serves as normalization for cell number and nonspecific effects. Compounds were screened as a concentration-titration series that ranged from 46 uM to 3 nM.
# NCGC Assay Protocol Summary: Cells were seeded in 1536-well plates at 5000 cells/4uL in IMDM medium containing 0.5% FBS, w/o phenol red, 1% penicillin/streptomycin. Then, 23 nL of compounds or DMSO were delivered to each well using a pin tool. One uL 20ng/ml doxycycline was then dispensed into white solid 1536-well plates and the plates were incubated at 37C/5% C02 in a cell incubator for 4 hrs. Then 4 uL luminescent substrate mix (in-house prepared: 150 mM Tris-Cl, pH 7.6, 3 mM MgCl2, 1% Triton X-100, 5 mM DTT, 0.2 mM CoA, 0.15 mM ATP, 5 mM D-luciferin, final concentrations) was added to each well. The plate was incubated at r.t. for 10-15 min. The plates were measured on a ViewLux plate reader for green luminescence (540/20 nm filter) and red luminescence (618/8 nm filter). The green and red luminescent signals were corrected for red and green luminescence filter overlap using previously determined filter calibration constants (determined using the procedure outlined in the Promega Technical Manual; REF 4). The %Activity was determined from the ratio of corrected green/red luminescent values. MG132 were used as control. […] Red luminescent %Activity was normalized to the difference between red luminesence in basal cells (0%Activity) and zero luminescence (-100% Activity). […]
# Potency is the fitted concentration of half-maximal effect.
Compound,"activity change, negative = inhibition",Potency
O=C(NCc1ccccc1C(F)(F)F)c1cccc2c1C(=O)c1ccc(N3CCOCC3)cc1S2(=O)=O,inconclusive: 2.34%,
COc1ccccc1NC(=S)NCc1cccs1,inconclusive: -8.42%,
O=C(CCc1ccccc1)NCCc1ccc(F)cc1,inconclusive: -14.3%,
COc1ccccc1C(=O)Nc1ccc2nc(SCC(=O)N(C)C)sc2c1,inconclusive: 3.1%,
O=C(Nc1ccc(Cl)cc1)N1CCSc2ccccc21,inconclusive: 5.8%,
COc1ccc(-n2nnnc2SCC(=O)Nc2ccc3c(c2)OCCO3)cc1OC,inconclusive: 0.03%,
Cc1ccc(C(=O)N/C(=C\c2cccs2)C(=O)NCCCN2CCOCC2)cc1,inactive,
O=C(N/N=C/c1cc(Br)c(O)c(Br)c1)c1cccnc1,inconclusive: -4.53%,
COc1ccc(-c2cc(C(=O)NCC(c3ccccc3)N(C)C)c3ccccc3n2)cc1OC (configuration not stated),inactive,
COC(=O)c1cc(C#N)c(NCc2ccccc2)nc1C,inconclusive: -0.0342%,
COc1ccc(C(=O)OCC(=O)Nc2ccc(N3CCOCC3)cc2)cc1OC,inconclusive: 1.44%,
Cc1ccccc1CSc1n[nH]c(NS(=O)(=O)c2ccccc2)n1,,"inconclusive: 14.6 µM [falling, single point]"
O=C(CSc1nnc(-c2ccc(O)cc2)o1)Nc1ccccc1Br,,"inconclusive: 12.6 µM [falling, partial curve, poor fit]"
O=C(NCc1ccc(F)cc1)C(c1ccc(Cl)cc1)N(C(=O)c1csnn1)C1CC1 (configuration not stated),inconclusive: -8.91%,
Fc1ccc(-[n+]2nc(Nc3ccccc3)sc2-c2c3ccccc3cc3ccccc23)cc1,inactive,
CCCCn1c(N)c(N(C(=O)CSc2nnc(C)n2-c2ccccc2)C2CCCC2)c(=O)[nH]c1=O,inconclusive: 7.76%,
O=C(NCCc1ccc2c(c1)OCCO2)c1cccc(S(=O)(=O)N2CCCC2)c1,inconclusive: 2.99%,
O=C(Cc1ccc(Br)cc1)Nc1ccc2[nH]ncc2c1,inactive,
Cc1ccnc(NS(=O)(=O)Cc2ccccc2)c1,inconclusive: 1.85%,
O=C1c2cc3ccccc3c(-c3ccccc3)c2C(=O)N1c1ccccn1,inconclusive: 5.04%,
Cc1c(C(c2ccc(Br)cc2)c2c(C)n(C)n(-c3ccccc3)c2=O)c(=O)n(-c2ccccc2)n1C,inconclusive: -1.94%,

Compound,"activity change, negative = inhibition",Potency
NC(=O)CC(NC(=O)c1ccc(Br)cc1)c1ccc(N2CCC(Br)CC2)c([N+](=O)[O-])c1 (configuration not stated),inactive,
Cc1cccc2nc(-c3cccnc3)c(Nc3ccccc3)n12,inconclusive: 6.95%,
O=C(C1CC(=O)N(C2CCCCC2)C1)N1CCN(c2cccc(C(F)(F)F)c2)CC1 (configuration not stated),inactive,
COc1ccccc1OCc1nc(C#N)c(N2CC(C)CC(C)C2)o1 (configuration not stated),,"inconclusive: 4.11 µM [rising, single point]"
Cc1ccccc1N/C=C/C(=C(C#N)C#N)N(C)C,inconclusive: 0.571%,
O=C(N/N=C/c1cccnc1)c1cc2c(ccc3ccccc32)o1,,"inconclusive: 16.4 µM [falling, single point]"
O=C(COc1ccccc1[N+](=O)[O-])NCCC1=CCCCC1,inconclusive: -0.618%,
CC1CCN(C(=O)C2CCN(S(=O)(=O)c3cc(Cl)ccc3Cl)CC2)CC1,inactive,
CSc1nnc(Cc2sc(-c3ccccc3)nc2-c2ccccc2)o1,inconclusive: 6.8%,
CC(C)C1C(=O)NC(=S)N1S(=O)(=O)c1ccc(C(C)(C)C)cc1 (configuration not stated),,"inconclusive: 18.4 µM [rising, single point]"
Cc1[nH]c(=S)[nH]c(=O)c1CCOc1ccccc1,inactive,
COc1cc(CNc2cccc(F)c2)cc(Br)c1O,inactive,
Cc1ccc(NCc2nnc(SCC(N)=O)n2CCc2ccccc2)cc1,inconclusive: -0.958%,
Cc1c(C(=O)O)sc2nc(SCC(=O)Nc3ccc(S(=O)(=O)NC(C)(C)C)cc3)[nH]c(=O)c12,inconclusive: -12.4%,
COc1cccc(NC(=O)COC(=O)CCC(=O)c2cccs2)c1,inactive,
CCOC(=O)c1cc(-c2ccccc2)n(-c2cccc(C(=O)Nc3cccc(C(C)=O)c3)c2)c1C,,"inconclusive: 3.55 µM [falling, single point]"
CCN(CC)S(=O)(=O)c1cccc(C(=O)Nc2nc3cc4c(cc3s2)OCCO4)c1,inconclusive: 3.12%,
CCn1cc(S(=O)(=O)NC2CCCCC2)cn1,inactive,
CCc1cc2cc(C)cc(C)c2nc1SCC(=O)N1CCN(C(=O)c2ccco2)CC1,inconclusive: -0.0055%,
CCc1ccc(S(=O)(=O)NCCc2csc(-c3cccnc3)n2)s1,inactive,
O=C(O)c1cccc(S(=O)(=O)Nc2cc(Cl)ccc2Cl)c1,,"inconclusive: 3.98 µM [rising, single point]"

# 9 successive records already listed, for reference:
Compound,"activity change, negative = inhibition",Potency
Cc1ccccc1N/C=C/C(=C(C#N)C#N)N(C)C,inconclusive: 0.571%,
O=C(N/N=C/c1cccnc1)c1cc2c(ccc3ccccc32)o1,,"inconclusive: 16.4 µM [falling, single point]"
O=C(COc1ccccc1[N+](=O)[O-])NCCC1=CCCCC1,inconclusive: -0.618%,
CC1CCN(C(=O)C2CCN(S(=O)(=O)c3cc(Cl)ccc3Cl)CC2)CC1,inactive,
CSc1nnc(Cc2sc(-c3ccccc3)nc2-c2ccccc2)o1,inconclusive: 6.8%,
CC(C)C1C(=O)NC(=S)N1S(=O)(=O)c1ccc(C(C)(C)C)cc1 (configuration not stated),,"inconclusive: 18.4 µM [rising, single point]"
Cc1[nH]c(=S)[nH]c(=O)c1CCOc1ccccc1,inactive,
COc1cc(CNc2cccc(F)c2)cc(Br)c1O,inactive,
Cc1ccc(NCc2nnc(SCC(N)=O)n2CCc2ccccc2)cc1,inconclusive: -0.958%,

# Going on with the list.

Compound,"activity change, negative = inhibition",Potency
O=S(=O)(NCCO)c1ccc2c(c1)Cc1cc(S(=O)(=O)NCCO)ccc1-2,inconclusive: 0.714%,
Nc1nonc1-n1nnc(C(=O)N/N=C/c2ccccc2F)c1CN1CCc2ccccc21,inconclusive: 15.2%,
O=C(NCC(c1ccco1)N1CCc2ccccc2C1)c1ccc(Cl)c([N+](=O)[O-])c1 (configuration not stated),,"inconclusive: 32.6 µM [rising, partial curve, poor fit]"
COc1cc(C(C(=O)NC(C)(C)C)N(C(=O)CNC(=O)c2cccs2)c2ccc(C(C)C)cc2)cc(OC)c1OC (configuration not stated),inconclusive: 6.27%,
CC(=O)Nc1ccc(NC(=O)C/C(C)=N/NC(=O)C(=O)Nc2ccc(C)c(Cl)c2)cc1,inconclusive: -3.67%,
COc1ccc2c(CC(=O)N3CCc4ccccc43)coc2c1,,"inconclusive: 7.31 µM [falling, partial curve]"
Cn1cc(SCC(=O)Nc2ccc3c(c2)OCO3)c2ccccc21,inactive,
Cc1nc(N)sc1C(=O)OCC(C)C,inconclusive: -8.66%,
O=C1c2ccccc2-c2c1cccc2C(=O)N1CCCCCC1,inactive,
CC(C)NC(=O)[C@H]1N2C(=O)c3ccccc3C2SC1(C)C (some centres not stated),inactive,
COC(=O)c1c(O)c2ccccc2[nH]c1=O,,"inconclusive: 29.1 µM [falling, single point]"
CC(C)NC(=O)NC(=O)COC(=O)C1CCCN1C(=O)c1cccs1 (configuration not stated),inconclusive: 5.85%,
CC1CN(c2nc3ccccc3nc2C(C#N)C(=O)NCc2ccc3c(c2)OCO3)CC(C)O1 (configuration not stated),inconclusive: 7.83%,
C[C@@H](NC(=O)[C@@H]1Cc2ccccc2CN1)C(=O)NC1CCCCC1,,"inconclusive: 10 µM [falling, partial curve]"
Cc1ccc(S(=O)(=O)NCCC(=O)NCCSc2ccc(Br)cc2)cc1,inconclusive: 3.13%,
CSc1cccc(NC(=O)C2CCCN(S(=O)(=O)c3ccc(F)cc3)C2)c1 (configuration not stated),inconclusive: -24%,
O=C(c1ccccc1)c1cc2ccccc2o1,inconclusive: -0.0807%,
COc1ccc(O[C@H]2C=C[C@@H](c3ccccc3)O[C@@H]2COC(=O)CCC(C)=NO[C@@H]2O[C@H](COC(C)=O)[C@@H](OC(C)=O)[C@H](OC(C)=O)[C@H]2OC(C)=O)cc1,inconclusive: -12.2%,
C[C@]12C(=O)N(c3ccccc3)C(=O)N1[C@@H]1c3ccccc3OC[C@@H]1[C@H]2c1ccccc1,inactive,
O=C(NC1CCN(Cc2ccccc2)CC1)c1cc(S(=O)(=O)Nc2ccc(F)cc2)ccc1Cl,inactive,
O=C(c1cc(-c2ccc(F)cc2)on1)N1CCCCCC1,,"inconclusive: 7.94 µM [falling, partial curve]"

Compound,"activity change, negative = inhibition",Potency
CC(=O)c1c(C)[nH]c(C(=O)OC2CCOC2=O)c1C (configuration not stated),,"inconclusive: 0.651 µM [falling, partial curve, poor fit]"
CSc1ncccc1C(=O)OCc1ccccc1F,inconclusive: -2.57%,
COC(=O)/C=C/C(=O)Nc1cccc(C(F)(F)F)c1,inconclusive: -0.808%,
O=C(Cn1nnc2c(cnn2-c2ccccc2)c1=O)N1CCN(c2ccccc2F)CC1,,"inconclusive: 31.6 µM [falling, single point]"
CCS(=O)(=O)c1cccc(C(=O)N2CCN(c3nc4c(C)ccc(Cl)c4s3)CC2)c1,inactive,
Cc1ccccc1OCCC(=O)NNC(=O)c1ccccc1F,inactive,
O=C(O)CCC(=O)c1cccc2ccccc12,,"inconclusive: 1.58 µM [rising, full curve, poor fit]"
O=C(NC(C(=O)N/N=C/c1cccnc1)c1n[nH]c(=O)c2ccccc12)c1ccccc1 (configuration not stated),inconclusive: -1.31%,
O=C(Nc1nc2ccccc2[nH]1)c1cccc(Br)c1,,"inconclusive: 3.55 µM [falling, full curve, poor fit]"
O=C(CCS(=O)(=O)c1ccccc1)Nc1nncs1,inconclusive: -23.9%,
Cc1cccc2c(N)c3c(nc12)CCCC3 (tested in a mixture with another compound),inactive,
O=C(Nc1ccccn1)N1CCOCC1,inactive,
O=C(O)c1sccc1S(=O)(=O)N1CCN(c2ccc(C(F)(F)F)cn2)CC1,,"inconclusive: 14.1 µM [rising, partial curve, poor fit]"
O=C(CCc1ccccn1)N1CCCC(N2CCN(c3ccc(F)cc3)CC2)C1 (configuration not stated),inactive,
Cc1ccc(NC(=S)Nc2ccccn2)cc1C,inconclusive: -16.4%,
Cc1nc(NC(=O)c2cncc(Br)c2)ccc1Br,inactive,
CC(C)CN(CC(C)C)C(=S)Nc1ccc(Cl)cc1,inconclusive: 14.8%,
CCOc1ccccc1Nc1nnc(Cc2ccccc2Cl)c(=O)[nH]1,inconclusive: -0.573%,
O=c1c2ccccc2c(-c2ccc(Cl)cc2)nn1-c1ccccc1,inconclusive: 16.9%,
